# Assay results taken from paper PMC11014436.
# Amino acid sequences for entries named in this document (tags omitted). A change or cut given only in a name is not applied to a line headed by its entry.
# UniProt Q9NP72: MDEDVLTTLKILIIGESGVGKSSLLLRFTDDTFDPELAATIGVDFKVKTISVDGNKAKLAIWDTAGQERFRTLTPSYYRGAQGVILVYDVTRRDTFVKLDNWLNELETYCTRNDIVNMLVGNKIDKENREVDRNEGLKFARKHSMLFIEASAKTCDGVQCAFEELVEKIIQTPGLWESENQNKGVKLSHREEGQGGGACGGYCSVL
# UniProt P11142: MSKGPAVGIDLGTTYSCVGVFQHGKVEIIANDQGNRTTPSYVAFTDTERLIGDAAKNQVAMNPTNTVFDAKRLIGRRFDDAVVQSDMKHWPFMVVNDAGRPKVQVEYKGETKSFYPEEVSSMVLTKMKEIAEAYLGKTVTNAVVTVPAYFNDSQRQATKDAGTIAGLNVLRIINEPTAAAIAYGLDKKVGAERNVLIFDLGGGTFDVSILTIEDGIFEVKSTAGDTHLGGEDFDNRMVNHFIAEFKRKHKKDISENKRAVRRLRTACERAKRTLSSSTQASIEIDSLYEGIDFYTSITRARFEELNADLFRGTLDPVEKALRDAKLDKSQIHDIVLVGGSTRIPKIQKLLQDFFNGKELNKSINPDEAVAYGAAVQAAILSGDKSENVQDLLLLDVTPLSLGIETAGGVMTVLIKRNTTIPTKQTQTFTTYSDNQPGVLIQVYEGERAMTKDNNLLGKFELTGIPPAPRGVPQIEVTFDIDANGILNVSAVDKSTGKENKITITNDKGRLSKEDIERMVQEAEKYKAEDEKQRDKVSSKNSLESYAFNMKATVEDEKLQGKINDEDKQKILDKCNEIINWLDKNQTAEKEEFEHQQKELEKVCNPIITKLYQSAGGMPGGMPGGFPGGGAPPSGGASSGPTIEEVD
# No constants are given. Whether binding was seen depends on the method and setting. For some assays here: In cells and extracts the contact can be indirect.
# How the values were obtained:
# [1] = molecular target: RAB18-FLAG lacking the Switch II domain (UniProt Q9NP72); experiment: co-IP; HEK293T cells co-transfected for 24 h; lysis buffer PBS, 1% NP-40, 5 mM EDTA, 5 mM EGTA; Sepharose with IgG, anti-FLAG or anti-HA mAb for 4 h; immunoblot
# [2] = molecular target: GST-RAB18 with the Switch II domain deleted (UniProt Q9NP72); experiment: pull-down; in vitro affinity isolation: GST-tag purification resin, 1 nM His-tagged protein with 1 nM GST fusion protein in 500 μL PBS + 1% Triton X-100, 45 min at 4°C; five washes; immunoblot; both purified
Substance,binding [1],binding [2]
HSPA8-HA (from UniProt P11142 1-646),no binding,–
His-SUMO-HSPA8 (from UniProt P11142 1-646),–,no binding (tested: 1 nM)
